Read-outs that look alike come from different tables or passages of the source. No constants are given. Whether binding was seen depends on the method and setting. In cells and extracts the contact can be indirect. Some results given as binding are weak or reduced against the parent protein; the word gives no strength. Where a sequence is shown, tags or fusion partners need not be part of it.
Key:
Test in all cases: co-IP
[1] = molecular target: T1, SRF K165A (site-directed mutant of pCGN-SRF-HA) (UniProt P11831)
T1 sequence: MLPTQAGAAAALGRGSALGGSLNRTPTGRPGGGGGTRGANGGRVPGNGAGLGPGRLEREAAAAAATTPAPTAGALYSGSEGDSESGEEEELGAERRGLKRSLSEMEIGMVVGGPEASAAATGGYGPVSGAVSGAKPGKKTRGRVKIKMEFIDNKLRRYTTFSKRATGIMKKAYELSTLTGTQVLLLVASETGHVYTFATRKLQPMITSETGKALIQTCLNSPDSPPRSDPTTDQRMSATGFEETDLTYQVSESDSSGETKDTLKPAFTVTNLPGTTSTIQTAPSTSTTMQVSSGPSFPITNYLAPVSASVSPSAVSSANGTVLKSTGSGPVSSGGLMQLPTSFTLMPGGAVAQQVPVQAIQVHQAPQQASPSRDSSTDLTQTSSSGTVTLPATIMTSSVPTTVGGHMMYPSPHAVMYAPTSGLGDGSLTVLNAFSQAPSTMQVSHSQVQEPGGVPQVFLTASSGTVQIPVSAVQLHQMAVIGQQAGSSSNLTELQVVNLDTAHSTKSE

Protein sequences, listed by entry. Tags and fused reporters are not part of them. Lines headed by an entry give the natural chain unless they say otherwise; changes in a name come on top.
UniProt P10085, whole entry, stated change not applied: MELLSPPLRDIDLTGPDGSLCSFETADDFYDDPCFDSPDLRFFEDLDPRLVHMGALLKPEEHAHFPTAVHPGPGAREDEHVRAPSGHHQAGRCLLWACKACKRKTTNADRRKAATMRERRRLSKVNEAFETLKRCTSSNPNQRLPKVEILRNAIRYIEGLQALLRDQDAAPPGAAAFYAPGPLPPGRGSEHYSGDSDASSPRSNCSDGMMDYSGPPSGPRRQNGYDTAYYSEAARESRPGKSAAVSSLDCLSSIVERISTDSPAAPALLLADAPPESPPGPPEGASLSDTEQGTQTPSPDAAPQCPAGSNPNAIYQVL

[2] = molecular target: T2, HA-tagged SRF, full length (pCGN-SRF-HA) (UniProt P11831)
T2 sequence: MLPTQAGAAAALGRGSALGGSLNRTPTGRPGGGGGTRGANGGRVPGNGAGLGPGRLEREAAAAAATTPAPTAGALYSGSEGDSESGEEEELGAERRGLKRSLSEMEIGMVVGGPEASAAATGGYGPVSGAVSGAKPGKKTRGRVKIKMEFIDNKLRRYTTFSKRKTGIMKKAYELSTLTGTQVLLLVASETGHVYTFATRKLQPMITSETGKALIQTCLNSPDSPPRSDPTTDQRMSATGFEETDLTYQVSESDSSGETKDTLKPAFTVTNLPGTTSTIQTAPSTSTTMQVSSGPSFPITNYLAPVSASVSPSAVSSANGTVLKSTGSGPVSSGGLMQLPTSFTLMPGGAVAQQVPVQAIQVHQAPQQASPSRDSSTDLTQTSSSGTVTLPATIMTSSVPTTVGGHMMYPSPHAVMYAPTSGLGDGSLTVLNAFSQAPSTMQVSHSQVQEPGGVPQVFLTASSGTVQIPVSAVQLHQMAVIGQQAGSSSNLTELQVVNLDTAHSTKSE

[3] = molecular target: T1, SRF K165A (site-directed mutant of pCGN-SRF-HA); remark: listed apart in the source
[4] = molecular target: T2, HA-tagged SRF, full length (pCGN-SRF-HA); remark: listed apart in the source
[5] = molecular target: T3, Flag-tagged KDM2B (pCMV-3xFlag-KDM2B) (UniProt Q8NHM5)
T3 sequence: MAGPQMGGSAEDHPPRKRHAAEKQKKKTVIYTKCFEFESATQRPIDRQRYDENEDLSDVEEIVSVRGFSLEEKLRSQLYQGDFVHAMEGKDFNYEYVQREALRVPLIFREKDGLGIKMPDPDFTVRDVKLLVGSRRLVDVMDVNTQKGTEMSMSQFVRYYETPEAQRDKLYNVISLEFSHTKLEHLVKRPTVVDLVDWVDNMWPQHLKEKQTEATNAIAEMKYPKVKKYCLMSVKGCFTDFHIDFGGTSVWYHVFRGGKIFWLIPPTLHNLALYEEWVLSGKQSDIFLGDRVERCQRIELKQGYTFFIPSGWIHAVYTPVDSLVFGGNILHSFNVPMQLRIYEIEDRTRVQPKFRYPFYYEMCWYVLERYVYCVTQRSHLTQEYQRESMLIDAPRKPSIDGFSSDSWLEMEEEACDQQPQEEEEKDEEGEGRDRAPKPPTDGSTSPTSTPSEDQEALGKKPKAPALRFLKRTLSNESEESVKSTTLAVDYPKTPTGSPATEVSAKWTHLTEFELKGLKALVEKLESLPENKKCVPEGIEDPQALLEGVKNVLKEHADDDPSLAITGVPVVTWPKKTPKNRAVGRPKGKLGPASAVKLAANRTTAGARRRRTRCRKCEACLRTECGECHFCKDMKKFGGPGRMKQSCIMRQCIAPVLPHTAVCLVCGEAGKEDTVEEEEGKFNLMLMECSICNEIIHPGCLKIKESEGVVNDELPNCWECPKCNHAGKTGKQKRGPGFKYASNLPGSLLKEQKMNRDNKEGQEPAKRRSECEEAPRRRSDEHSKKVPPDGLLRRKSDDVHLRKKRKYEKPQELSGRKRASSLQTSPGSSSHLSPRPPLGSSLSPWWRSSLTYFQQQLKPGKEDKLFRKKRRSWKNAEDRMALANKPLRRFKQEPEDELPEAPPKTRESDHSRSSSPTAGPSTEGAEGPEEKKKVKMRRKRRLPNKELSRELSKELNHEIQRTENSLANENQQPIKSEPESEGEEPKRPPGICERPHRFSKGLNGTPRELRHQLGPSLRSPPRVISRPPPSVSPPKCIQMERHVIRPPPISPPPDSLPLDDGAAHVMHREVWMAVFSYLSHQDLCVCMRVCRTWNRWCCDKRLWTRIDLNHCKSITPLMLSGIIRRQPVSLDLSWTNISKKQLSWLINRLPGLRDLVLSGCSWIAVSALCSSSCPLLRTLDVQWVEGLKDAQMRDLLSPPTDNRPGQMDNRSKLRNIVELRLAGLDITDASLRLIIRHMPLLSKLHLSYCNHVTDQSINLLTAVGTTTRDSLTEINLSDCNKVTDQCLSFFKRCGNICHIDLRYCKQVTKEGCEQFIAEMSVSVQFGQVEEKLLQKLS

[6] = molecular target: T3, Flag-tagged KDM2B (pCMV-3xFlag-KDM2B); remark: listed apart in the source

In the case of “MyoD (as tested with SRF WT and SRF K165A, Fig EV7D) (from UniProt P10085 1-318)”, the binding [1] is reported as “binds” and the binding [2] is reported as “binds”.

B1: SET7 (as tested with SRF WT and SRF K165A, Fig EV7E) (enzyme, UniProt Q8WTS6 1-366)
chain: MDSDDEMVEEAVEGHLDDDGLPHGFCTVTYSSTDRFEGNFVHGEKNGRGKFFFFDGSTLEGYYVDDALQGQGVYTYEDGGVLQGTYVDGELNGPAQEYDTDGRLIFKGQYKDNIRHGVCWIYYPDGGSLVGEVNEDGEMTGEKIAYVYPDERTALYGKFIDGEMIEGKLATLMSTEEGRPHFELMPGNSVYHFDKSTSSCISTNALLPDPYESERVYVAESLISSAGEGLFSKVAVGPNTVMSFYNGVRITHQEVDSRDWALNGNTLSLDEETVIDVPEPYNHVSKYCASLGHKANHSFTPNCIYDMFVHPRFGPIKCIRTLRAVEADEELTVAYGYDHSPPGKSGPEAPEWYQVELKAFQATQQK
In the case of B1, the binding [3] is reported as “binds” and the binding [4] is reported as “binds”.

B2: HA-tagged SRF, full length (pCGN-SRF-HA) (protein, UniProt P11831 1-508)
chain: MLPTQAGAAAALGRGSALGGSLNRTPTGRPGGGGGTRGANGGRVPGNGAGLGPGRLEREAAAAAATTPAPTAGALYSGSEGDSESGEEEELGAERRGLKRSLSEMEIGMVVGGPEASAAATGGYGPVSGAVSGAKPGKKTRGRVKIKMEFIDNKLRRYTTFSKRKTGIMKKAYELSTLTGTQVLLLVASETGHVYTFATRKLQPMITSETGKALIQTCLNSPDSPPRSDPTTDQRMSATGFEETDLTYQVSESDSSGETKDTLKPAFTVTNLPGTTSTIQTAPSTSTTMQVSSGPSFPITNYLAPVSASVSPSAVSSANGTVLKSTGSGPVSSGGLMQLPTSFTLMPGGAVAQQVPVQAIQVHQAPQQASPSRDSSTDLTQTSSSGTVTLPATIMTSSVPTTVGGHMMYPSPHAVMYAPTSGLGDGSLTVLNAFSQAPSTMQVSHSQVQEPGGVPQVFLTASSGTVQIPVSAVQLHQMAVIGQQAGSSSNLTELQVVNLDTAHSTKSE
B2 was tested, and the binding [5] was “binds” and the binding [6] was “binds”.

Source: paper doi:10.1101/2020.04.17.046342
